This is one part of the list. Most entries show no effect beyond the scatter of the controls.
compound: CN[C@@H]1C[C@H]2O[C@@](C)([C@@H]1OC)n1c3ccccc3c3c4c(c5c6ccccc6n2c5c31)C(=O)NC4 [staurosporine]; experiment: log2 fold change of tryptic peptide abundance, ligand vs vehicle (limited proteolysis) (log2 ratio); higher = more trypsin-susceptible (destabilized); details: ligand concentration: 20 uM; sample: K562 cleared lysate; digestion: 4 min, 22 C (HT-PELSA RT4min, Orbitrap Astral)

Protein sequences, listed by entry. Tags and fused reporters are not part of them. Lines headed by an entry give the natural chain unless they say otherwise; changes in a name come on top.
UniProt Q14807: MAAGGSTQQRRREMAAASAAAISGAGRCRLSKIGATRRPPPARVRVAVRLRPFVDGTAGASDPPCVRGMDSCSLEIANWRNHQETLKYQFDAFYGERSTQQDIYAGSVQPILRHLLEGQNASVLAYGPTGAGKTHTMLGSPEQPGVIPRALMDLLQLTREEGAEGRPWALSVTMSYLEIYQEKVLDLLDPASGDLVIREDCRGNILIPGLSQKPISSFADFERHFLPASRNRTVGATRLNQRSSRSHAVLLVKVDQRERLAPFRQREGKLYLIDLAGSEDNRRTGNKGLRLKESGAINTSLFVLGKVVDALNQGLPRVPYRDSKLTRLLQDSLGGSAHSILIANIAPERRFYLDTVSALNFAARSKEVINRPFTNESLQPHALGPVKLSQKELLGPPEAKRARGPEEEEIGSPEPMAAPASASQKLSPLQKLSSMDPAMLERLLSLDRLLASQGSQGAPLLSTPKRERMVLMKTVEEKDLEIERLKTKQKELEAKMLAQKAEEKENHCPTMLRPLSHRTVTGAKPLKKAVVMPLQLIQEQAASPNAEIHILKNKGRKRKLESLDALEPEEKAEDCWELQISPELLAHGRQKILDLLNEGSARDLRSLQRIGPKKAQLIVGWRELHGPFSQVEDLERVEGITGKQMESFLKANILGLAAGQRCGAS
UniProt Q14BN4: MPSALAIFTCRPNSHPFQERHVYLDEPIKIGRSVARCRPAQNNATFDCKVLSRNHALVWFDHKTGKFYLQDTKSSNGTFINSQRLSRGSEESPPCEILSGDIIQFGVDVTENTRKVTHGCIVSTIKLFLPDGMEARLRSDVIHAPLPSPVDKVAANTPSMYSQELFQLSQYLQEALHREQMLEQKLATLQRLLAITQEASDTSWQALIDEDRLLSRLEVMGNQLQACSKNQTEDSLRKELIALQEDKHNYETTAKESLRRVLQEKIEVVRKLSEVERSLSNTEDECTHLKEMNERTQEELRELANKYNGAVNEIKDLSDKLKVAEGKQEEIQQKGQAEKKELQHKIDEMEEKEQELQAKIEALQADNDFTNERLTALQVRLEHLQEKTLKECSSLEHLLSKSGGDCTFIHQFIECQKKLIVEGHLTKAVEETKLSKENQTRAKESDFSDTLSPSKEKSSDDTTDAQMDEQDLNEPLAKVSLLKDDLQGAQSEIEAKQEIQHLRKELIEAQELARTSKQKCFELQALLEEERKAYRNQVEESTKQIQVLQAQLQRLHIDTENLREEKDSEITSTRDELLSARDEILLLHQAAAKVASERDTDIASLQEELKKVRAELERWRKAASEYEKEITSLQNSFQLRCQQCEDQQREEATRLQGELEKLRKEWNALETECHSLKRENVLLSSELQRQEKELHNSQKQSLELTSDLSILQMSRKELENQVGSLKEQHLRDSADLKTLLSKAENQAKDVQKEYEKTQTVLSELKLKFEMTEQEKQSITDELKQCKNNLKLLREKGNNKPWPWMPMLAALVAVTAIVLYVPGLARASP
UniProt Q14181: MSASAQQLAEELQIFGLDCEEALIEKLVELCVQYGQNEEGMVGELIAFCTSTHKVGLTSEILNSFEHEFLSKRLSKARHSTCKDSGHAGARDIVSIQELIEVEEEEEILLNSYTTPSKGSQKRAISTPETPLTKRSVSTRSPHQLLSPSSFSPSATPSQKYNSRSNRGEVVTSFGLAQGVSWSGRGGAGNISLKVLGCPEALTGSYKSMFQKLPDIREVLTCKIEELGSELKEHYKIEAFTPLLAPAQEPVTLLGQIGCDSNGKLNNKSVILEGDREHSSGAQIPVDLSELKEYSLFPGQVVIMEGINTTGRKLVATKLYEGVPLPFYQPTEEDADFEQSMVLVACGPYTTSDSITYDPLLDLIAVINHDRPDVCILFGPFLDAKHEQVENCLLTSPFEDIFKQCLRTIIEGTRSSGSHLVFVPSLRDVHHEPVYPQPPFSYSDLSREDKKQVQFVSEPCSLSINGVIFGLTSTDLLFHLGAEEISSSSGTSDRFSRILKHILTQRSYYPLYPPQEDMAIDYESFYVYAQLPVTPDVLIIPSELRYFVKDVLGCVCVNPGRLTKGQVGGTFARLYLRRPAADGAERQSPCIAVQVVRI
UniProt Q14008: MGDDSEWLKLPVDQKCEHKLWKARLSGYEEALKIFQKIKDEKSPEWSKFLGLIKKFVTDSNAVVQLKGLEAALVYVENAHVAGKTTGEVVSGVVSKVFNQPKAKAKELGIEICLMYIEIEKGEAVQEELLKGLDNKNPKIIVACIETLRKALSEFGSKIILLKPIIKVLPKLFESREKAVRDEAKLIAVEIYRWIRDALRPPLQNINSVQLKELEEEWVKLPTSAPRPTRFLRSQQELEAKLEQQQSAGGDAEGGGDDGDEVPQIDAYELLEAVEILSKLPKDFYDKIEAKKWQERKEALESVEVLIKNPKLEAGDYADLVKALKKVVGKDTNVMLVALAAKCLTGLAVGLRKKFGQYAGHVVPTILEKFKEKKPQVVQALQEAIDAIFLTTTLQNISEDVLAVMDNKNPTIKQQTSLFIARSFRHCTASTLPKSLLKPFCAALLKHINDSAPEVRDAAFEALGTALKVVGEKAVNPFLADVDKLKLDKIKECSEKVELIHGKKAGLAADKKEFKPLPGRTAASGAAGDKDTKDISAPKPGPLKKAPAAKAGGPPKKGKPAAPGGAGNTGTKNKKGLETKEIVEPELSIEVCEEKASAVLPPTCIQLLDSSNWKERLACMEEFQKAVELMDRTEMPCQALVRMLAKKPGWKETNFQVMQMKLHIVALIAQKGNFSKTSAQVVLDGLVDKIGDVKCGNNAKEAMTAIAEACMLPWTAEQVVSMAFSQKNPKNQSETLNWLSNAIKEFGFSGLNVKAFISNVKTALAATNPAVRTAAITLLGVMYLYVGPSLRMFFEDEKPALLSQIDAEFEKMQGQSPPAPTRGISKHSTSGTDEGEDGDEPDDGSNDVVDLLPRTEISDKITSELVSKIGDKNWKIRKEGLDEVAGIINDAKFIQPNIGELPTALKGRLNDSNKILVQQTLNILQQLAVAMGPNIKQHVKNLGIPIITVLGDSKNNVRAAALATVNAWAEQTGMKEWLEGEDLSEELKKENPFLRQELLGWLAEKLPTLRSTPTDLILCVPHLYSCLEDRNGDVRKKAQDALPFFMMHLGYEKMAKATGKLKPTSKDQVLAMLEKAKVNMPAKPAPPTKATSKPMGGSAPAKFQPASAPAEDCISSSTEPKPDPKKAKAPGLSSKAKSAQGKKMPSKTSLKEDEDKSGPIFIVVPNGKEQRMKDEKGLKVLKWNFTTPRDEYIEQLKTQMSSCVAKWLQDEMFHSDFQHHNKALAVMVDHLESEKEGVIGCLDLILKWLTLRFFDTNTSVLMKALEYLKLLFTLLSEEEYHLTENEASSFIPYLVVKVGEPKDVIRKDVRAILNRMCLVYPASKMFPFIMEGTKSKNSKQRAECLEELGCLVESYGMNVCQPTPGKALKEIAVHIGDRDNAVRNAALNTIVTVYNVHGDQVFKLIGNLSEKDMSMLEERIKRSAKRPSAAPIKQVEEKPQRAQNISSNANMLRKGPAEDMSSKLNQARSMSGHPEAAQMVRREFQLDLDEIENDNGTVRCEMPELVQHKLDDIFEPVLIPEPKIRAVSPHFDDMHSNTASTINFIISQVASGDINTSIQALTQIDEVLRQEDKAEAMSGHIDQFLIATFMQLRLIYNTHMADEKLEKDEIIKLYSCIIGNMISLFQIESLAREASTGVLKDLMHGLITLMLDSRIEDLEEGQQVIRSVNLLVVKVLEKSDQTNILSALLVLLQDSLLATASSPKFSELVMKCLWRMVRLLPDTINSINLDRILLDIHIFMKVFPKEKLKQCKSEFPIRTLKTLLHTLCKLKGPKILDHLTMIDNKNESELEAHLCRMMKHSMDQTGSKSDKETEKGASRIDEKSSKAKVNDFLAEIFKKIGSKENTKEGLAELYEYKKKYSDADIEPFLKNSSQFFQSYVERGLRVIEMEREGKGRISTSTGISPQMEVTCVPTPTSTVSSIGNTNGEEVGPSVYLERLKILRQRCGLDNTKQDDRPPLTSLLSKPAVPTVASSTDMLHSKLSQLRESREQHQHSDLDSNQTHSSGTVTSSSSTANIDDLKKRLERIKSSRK
UniProt Q14691: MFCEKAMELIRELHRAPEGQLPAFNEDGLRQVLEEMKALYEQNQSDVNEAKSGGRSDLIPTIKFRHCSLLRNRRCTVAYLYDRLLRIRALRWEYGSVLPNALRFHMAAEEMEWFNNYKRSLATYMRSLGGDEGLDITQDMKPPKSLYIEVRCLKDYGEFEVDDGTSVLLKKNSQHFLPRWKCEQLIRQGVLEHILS
UniProt Q13426: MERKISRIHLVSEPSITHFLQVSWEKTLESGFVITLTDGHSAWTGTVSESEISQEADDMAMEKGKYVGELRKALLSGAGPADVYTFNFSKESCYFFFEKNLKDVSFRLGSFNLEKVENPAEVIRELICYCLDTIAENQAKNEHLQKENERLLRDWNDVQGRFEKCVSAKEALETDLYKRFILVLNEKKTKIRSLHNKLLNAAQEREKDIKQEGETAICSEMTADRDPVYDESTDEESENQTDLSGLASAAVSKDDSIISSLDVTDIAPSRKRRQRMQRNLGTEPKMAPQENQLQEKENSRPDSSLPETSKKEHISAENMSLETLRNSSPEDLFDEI
UniProt Q13907: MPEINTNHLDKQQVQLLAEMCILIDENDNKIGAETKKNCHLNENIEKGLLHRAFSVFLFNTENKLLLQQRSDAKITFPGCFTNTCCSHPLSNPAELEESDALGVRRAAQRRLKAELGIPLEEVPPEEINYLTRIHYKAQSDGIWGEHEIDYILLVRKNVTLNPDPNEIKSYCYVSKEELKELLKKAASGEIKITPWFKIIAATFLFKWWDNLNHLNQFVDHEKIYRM
UniProt Q13206, whole entry: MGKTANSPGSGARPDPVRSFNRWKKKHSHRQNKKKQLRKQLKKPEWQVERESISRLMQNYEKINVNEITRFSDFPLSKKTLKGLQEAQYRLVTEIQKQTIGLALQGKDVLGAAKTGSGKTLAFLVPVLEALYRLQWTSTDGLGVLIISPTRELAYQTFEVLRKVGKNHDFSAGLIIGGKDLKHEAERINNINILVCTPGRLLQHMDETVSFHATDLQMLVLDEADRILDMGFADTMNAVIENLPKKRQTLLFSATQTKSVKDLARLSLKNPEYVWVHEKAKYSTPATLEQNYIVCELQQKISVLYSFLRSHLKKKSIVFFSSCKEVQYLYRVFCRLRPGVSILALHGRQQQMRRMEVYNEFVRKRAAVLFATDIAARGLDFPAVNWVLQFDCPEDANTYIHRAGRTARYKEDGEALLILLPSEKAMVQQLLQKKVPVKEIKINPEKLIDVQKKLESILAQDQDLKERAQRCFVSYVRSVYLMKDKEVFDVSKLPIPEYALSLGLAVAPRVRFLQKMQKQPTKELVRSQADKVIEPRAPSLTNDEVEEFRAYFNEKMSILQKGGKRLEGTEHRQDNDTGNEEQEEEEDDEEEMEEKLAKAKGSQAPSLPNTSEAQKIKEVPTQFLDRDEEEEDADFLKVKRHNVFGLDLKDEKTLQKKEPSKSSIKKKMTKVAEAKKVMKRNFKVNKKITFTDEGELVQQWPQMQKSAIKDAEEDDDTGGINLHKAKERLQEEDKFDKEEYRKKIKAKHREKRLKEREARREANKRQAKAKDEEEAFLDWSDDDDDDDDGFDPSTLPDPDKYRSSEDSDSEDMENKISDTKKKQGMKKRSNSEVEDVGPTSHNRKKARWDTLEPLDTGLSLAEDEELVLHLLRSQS
UniProt Q14469: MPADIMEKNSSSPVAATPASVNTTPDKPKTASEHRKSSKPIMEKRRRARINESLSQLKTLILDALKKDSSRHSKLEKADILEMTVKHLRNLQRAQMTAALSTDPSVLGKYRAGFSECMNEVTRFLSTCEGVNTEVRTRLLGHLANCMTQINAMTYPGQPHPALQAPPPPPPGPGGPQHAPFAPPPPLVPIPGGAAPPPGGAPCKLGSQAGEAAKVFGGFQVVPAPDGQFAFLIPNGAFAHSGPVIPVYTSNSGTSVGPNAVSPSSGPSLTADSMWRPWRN
UniProt Q13541: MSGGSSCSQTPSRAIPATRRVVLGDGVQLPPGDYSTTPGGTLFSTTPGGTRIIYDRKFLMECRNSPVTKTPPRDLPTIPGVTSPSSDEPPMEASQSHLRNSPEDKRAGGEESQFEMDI
UniProt Q13257, whole entry: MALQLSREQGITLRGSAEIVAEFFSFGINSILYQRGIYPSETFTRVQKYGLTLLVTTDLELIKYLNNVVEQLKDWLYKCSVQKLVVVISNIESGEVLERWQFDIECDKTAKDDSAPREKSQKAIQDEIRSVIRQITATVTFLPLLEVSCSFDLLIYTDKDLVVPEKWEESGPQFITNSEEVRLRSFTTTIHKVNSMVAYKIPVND

Target	log2 fold change
KIF22 (peptide sequence: TVTGAKPLKK, peptide start residue: 519) (UniProt Q14807)	0.501
SART3 (peptide sequence: AGPKADGEEDEVK, peptide start residue: 18) (UniProt Q15020)	-0.237
SLMAP (peptide sequence: ELIALQEDKHNYETTAK, peptide start residue: 239) (UniProt Q14BN4)	-0.419
FKBP8 (peptide sequence: GKVLAQQGEYSEAIPILR, peptide start residue: 313) (UniProt Q14318)	-0.492
POLA2 (peptide sequence: HSTCKDSGHAGAR, peptide start residue: 79) (UniProt Q14181)	0.409
R3HDM1 (peptide sequence: SIEEREEEYQR, peptide start residue: 282) (UniProt Q15032)	-0.496
CKAP5 (peptide sequence: SVNLLVVK, peptide start residue: 1667) (UniProt Q14008)	0.167
GINS1 (peptide sequence: CTVAYLYDR, peptide start residue: 75) (UniProt Q14691)	0.263
XRCC4 (peptide sequence: FILVLNEK, peptide start residue: 180) (UniProt Q13426)	-0.138
CUL1 (peptide sequence: MYNLVSR, peptide start residue: 322) (UniProt Q13616)	0.438
G3BP1 (peptide sequence: HPDSHQLFIGNLPHEVDK, peptide start residue: 336) (UniProt Q13283)	0.87
UniProt Q13946 (peptide sequence: QNEYLSLFR, peptide start residue: 326)	-0.263
MAD2L1BP (peptide sequence: NCGEDWFRPK, peptide start residue: 220) (UniProt Q15013)	-0.466
GAMT (peptide sequence: WETPYMHALAAAASSK, peptide start residue: 45) (UniProt Q14353)	0.811
NCOA6 (peptide sequence: MVVPEDQSKK, peptide start residue: 1451) (UniProt Q14686)	0.341
TSTA3 (peptide sequence: ILVTGGSGLVGK, peptide start residue: 10) (UniProt Q13630)	-0.151
ZNF638 (peptide sequence: EFGLLKPTSAR, peptide start residue: 1436) (UniProt Q14966)	-0.213
BECN1 (peptide sequence: LIQELEDVEK, peptide start residue: 194) (UniProt Q14457)	-0.371
IDI1 (peptide sequence: SYCYVSKEELK, peptide start residue: 170) (UniProt Q13907)	-0.262
DDX10 (peptide sequence: SIVFFSSCK, peptide start residue: 316) (UniProt Q13206)	-0.152
SPTAN1 (peptide sequence: VLETAEDIQERR, peptide start residue: 8) (UniProt Q13813)	-0.687
HES1 (peptide sequence: INESLSQLK, peptide start residue: 50) (UniProt Q14469)	0.379
EIF4EBP1 (peptide sequence: FLMECRNSPVTK, peptide start residue: 58) (UniProt Q13541)	0.652
TRIP12 (peptide sequence: GLPPHLFGPLGPR, peptide start residue: 410) (UniProt Q14669)	-0.185
MAD2L1 (peptide sequence: WQFDIECDKTAK, peptide start residue: 100) (UniProt Q13257)	0.142

Pulled one by one from the list above (2):
Target	log2 fold change
EIF4EBP1 (peptide sequence: FLMECRNSPVTK, peptide start residue: 58) (UniProt Q13541)	0.652
POLA2 (peptide sequence: HSTCKDSGHAGAR, peptide start residue: 79) (UniProt Q14181)	0.409

From the supplement of paper PMC12819154, “High-throughput peptide-centric local stability assay extends protein–ligand identification to membrane proteins, tissues and bacteria” (Nature Structural & Molecular Biology, 2025)
